Assay results from PMC3672163.
No constants are given. Whether binding was seen depends on the method and setting. Binding seen in cells or lysates may run through a third protein. Tags and fused reporters may be left off the sequences shown.

Molecular target: T1, HA-tagged MKlp1 (UniProt Q02241)
T1 sequence: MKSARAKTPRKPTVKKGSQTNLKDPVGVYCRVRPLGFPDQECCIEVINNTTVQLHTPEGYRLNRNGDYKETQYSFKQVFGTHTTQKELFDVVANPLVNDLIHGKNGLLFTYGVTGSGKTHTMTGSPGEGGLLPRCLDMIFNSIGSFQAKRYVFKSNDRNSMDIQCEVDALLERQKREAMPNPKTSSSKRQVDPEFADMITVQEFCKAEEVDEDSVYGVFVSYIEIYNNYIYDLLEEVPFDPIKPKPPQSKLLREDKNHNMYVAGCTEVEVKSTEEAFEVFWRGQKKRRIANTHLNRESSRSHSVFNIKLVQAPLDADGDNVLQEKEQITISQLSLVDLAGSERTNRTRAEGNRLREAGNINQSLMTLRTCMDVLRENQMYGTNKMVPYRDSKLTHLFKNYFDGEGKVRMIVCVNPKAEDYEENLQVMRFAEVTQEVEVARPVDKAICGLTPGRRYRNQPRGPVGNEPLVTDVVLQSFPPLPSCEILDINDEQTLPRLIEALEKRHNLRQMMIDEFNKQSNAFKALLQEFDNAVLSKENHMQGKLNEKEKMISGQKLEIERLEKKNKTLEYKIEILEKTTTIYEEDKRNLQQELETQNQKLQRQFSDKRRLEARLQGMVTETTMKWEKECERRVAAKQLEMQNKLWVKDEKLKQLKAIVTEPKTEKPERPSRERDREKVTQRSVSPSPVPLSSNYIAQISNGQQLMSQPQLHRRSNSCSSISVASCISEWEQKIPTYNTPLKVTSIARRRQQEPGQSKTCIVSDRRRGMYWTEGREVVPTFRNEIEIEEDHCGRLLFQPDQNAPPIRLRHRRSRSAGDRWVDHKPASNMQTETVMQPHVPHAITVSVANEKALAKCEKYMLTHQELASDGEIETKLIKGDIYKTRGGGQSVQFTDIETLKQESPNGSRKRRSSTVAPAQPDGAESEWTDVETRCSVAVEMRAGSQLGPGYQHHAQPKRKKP
Experiment: co-IP; HeLa cells transfected for 24 h, 0.1% NP-40 cell lysis buffer; antibodies to HA, Myc or GFP with Protein G-Sepharose (Figure 2B-D)

Substance: endogenous myosin-II (human (endogenous in HeLa))
- binding: no binding
